Protein sequences, listed by entry. Tags and fused reporters are not part of them.
UniProt F1MDH3: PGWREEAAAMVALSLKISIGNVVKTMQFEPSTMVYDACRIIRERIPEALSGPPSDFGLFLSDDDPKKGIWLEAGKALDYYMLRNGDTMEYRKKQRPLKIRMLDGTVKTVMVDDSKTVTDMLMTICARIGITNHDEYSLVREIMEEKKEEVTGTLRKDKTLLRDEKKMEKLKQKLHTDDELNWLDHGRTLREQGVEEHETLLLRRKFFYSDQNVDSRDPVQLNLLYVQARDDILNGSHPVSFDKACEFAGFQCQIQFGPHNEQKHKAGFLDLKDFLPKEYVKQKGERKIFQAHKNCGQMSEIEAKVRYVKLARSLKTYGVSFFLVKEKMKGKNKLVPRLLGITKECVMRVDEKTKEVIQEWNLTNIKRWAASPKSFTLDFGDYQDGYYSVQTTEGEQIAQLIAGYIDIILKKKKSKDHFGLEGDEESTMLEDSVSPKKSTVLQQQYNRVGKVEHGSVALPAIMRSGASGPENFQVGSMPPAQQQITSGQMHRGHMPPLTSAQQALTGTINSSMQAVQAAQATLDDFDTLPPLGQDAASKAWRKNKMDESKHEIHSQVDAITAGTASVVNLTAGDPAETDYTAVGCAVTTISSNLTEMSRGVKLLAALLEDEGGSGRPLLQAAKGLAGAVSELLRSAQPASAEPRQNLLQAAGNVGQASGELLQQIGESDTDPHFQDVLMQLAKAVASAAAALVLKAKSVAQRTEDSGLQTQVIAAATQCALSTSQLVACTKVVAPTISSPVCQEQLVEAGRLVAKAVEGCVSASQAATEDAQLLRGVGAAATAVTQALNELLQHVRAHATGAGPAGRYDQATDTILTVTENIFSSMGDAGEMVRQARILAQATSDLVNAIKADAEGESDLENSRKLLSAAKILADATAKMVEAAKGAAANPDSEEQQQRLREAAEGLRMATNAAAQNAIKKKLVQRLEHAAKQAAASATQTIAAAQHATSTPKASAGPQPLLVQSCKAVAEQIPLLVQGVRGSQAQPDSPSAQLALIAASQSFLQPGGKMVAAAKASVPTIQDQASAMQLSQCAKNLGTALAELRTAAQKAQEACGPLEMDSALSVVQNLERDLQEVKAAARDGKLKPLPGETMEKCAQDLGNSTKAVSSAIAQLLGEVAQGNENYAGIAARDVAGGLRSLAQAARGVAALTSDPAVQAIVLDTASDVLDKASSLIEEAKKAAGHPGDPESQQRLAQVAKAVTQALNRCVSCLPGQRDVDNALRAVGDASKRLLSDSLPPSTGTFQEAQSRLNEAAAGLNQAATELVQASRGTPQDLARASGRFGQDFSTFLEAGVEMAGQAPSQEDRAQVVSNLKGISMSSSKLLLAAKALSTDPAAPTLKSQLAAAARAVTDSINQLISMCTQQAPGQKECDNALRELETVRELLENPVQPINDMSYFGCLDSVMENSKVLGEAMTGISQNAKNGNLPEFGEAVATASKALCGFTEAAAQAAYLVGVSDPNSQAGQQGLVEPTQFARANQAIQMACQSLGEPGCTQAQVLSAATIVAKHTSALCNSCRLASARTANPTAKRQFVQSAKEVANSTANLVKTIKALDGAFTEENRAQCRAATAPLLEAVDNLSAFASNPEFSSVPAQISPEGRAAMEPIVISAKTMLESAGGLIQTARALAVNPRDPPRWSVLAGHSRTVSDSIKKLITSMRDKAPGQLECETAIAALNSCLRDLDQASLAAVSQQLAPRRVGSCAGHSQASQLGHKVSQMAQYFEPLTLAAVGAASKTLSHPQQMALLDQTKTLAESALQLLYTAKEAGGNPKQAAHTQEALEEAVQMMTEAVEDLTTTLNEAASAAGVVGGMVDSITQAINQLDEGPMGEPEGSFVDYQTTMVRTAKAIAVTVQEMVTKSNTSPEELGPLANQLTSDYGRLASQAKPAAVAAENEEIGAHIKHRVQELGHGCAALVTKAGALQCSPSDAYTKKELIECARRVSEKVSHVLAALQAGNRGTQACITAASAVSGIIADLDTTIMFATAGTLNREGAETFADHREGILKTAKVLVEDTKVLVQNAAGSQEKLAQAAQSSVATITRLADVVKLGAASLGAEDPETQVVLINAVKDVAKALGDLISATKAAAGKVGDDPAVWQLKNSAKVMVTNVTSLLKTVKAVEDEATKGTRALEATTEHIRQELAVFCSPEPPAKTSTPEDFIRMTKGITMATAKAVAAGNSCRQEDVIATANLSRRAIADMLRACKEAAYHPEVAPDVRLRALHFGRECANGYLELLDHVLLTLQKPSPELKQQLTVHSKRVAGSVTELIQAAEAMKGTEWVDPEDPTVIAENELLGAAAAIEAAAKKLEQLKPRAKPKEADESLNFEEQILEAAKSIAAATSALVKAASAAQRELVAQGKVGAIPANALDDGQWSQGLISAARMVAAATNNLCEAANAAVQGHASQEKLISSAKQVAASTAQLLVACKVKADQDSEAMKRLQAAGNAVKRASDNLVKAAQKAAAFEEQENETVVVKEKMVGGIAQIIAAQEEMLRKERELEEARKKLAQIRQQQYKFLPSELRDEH

According to article PMC6033098:

Target: T1, myc‐BirA*‐CLASP1_(1256–1538) (UniProt Q7Z460)
T1 sequence: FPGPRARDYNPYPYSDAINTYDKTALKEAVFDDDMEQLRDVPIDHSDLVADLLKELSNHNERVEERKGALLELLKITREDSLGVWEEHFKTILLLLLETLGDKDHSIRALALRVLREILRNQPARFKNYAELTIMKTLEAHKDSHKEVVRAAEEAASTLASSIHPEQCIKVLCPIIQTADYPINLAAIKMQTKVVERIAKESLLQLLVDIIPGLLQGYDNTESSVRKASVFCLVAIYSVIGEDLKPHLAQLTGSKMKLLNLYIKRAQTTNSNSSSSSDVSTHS
Assay: proximity labelling; BioID: myc‐BirA* fusion protein (bait) expressed in TaC12 cells, 50 μM biotin, stringent lysis, streptavidin Dynabeads, on‐bead tryptic digest and mass spectrometry; control: TaC12 WT cells

binding: no binding
Substance: Talin‐1 (from UniProt F1MDH3 1-2527)

These are yes or no findings as the source states them, for the method shown. In cells and extracts the contact can be indirect. Here binding means that the protein was enriched with, or labelled near, the bait; the list need not be complete. A no says only that the protein was not detected with the bait. Where a sequence is shown, tags or fusion partners need not be part of it.
